Measurements as given in the supplement of paper PMC10338343.
± gives the standard deviation. Some of the results follow. Many entries were measured with a wide error.

test system: EfPiwi piRISC loaded with L1MC piRNA (26 nt); assay: pre-steady-state target cleavage rate (min^-1); guide: L1MC piRNA 5'p-UAACUAAAUACUAUGCAAGCUGUAGG; MIWI and MILI are mouse PIWI proteins and EfPiwi is from a freshwater sponge; tags in brackets are library labels; higher = faster piRNA-guided slicing of the target; conditions: auxiliary factor: 500 nM Ephydatia muelleri Gtsf1
Method: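 Cleave-'n-Seq: a library of target RNAs (target site in constant flanks) at […] was incubated with 1 nM active freshwater sponge Ephydatia fluviatilis Piwi piRISC (synthetic 5'-monophosphorylated piRNA guide) with or without 500 nM EmGtsf1 at 33 °C for 1 min to 16 h. Uncleaved targets were sequenced and the pooled three trials fitted to a burst-and-steady-state model to give the pre-steady-state cleavage rate (min^-1). Sequence is the target site only. Fits with R² ≤ 0 are excluded.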

Sequence | pre-steady-state target cleavage rate
UCCUGGAUGUCGAUGCAUAGUAUUUUAGUUA | 0.00197 ± 0.0049
UCCUCCUACAGCUUGCAUACAUAAAUCAAA [g12:g26:cont:t1A] | 0.000545 ± 0.0097
UCCUGGUACAGCUUGCAUAGUAAAUACAAA | 0.00108 ± 0.0031
UCCUGGAUGUCGAACGUUUCAAUUUAGUUA | 0.000439 ± 0.013
UCCUGGUACAGCUUGCAUUGUAUUUACUUA | 0.000962 ± 0.0051
UCCUGGAUCAGCUUGCAUAGUAUUUACGUUA | 0.0133 ± 0.0044
UCCUCCUACAGCAUGCAUAGUUUUUAGUUA | 0.00379 ± 0.0028
UCCUGGAUGUCGAUGCAAAGUAUUUAGUAA | 0.00117 ± 0.0051
UCCUGCUACUGGUUGCAUAGUAUUUAGUUA | 0.0113 ± 0.0035
UCCUGGUACUGCUUGCAUAGUAUAUAGUUA | 0.01 ± 0.0048
UCCUGCUACAGCUACGAUAGUAUUUUCAAA | 0.000223 ± 0.015
UCCUGGAUGUCCUUGCAUAGUAUUUACAAA | 0.00325 ± 0.0045
UCCUGGAACUGCUUGCAUAGUAUUUAGAUA | 0.00297 ± 0.002
UCCUGGAUGUGCUAGCAAAGUAUUUAGUUA | 0.000472 ± 0.0085
UCCUCCUACAGCUUGCAUAGUAUGUAGUUA | 0.00354 ± 0.0013
UCCUGGUACAGCUUGCAUAGUAUAUAGUUA | 0.00533 ± 0.0027
UCCUGGAUGACCUUGCAUACUAUUUAGUUA | 0.00269 ± 0.0029
UCCUGGAUCUCGUUGCAUAGUAUUUACAAA | 0.000919 ± 0.0071
UCCUGGAUCAGCUUGCAUUGUAUUUACUUA | 0.00163 ± 0.0044
UCCUGCUACAGCUUGCAUAGUAAAUACAAA | 0.0021 ± 0.0034
UCCUGGUACAGCUUGCAUAGAUUUAGUUA | 0.0024 ± 0.0037
UCCUGGAUCACCUUGCAUAGUAUUUUCAAA | 0.000209 ± 0.034
UCCUGGAUGUCGAAGCAUAGUAUGUAGUUA | 0.000232 ± 0.019
UCCUGGAACAGCUUGCAUAGAAUUUACAAA | 0.00102 ± 0.0032
UCCUGGAUGAGCUUGCAUAUGUAUUUAGUUA | 0.00171 ± 0.0034
UCCUGGAUCAGCUUGCAUAGUAUUAGUUA | 0.00236 ± 0.0031
UCCUGGAUGUGCAUGCAUAGUAUUAAGUUA | 0.00157 ± 0.0042
UCCUGGAACAGCUUGCAUACAAUUUACAAA | 0.000806 ± 0.0042

same assay, conditions: auxiliary factor: none (no Gtsf1)

Sequence | pre-steady-state target cleavage rate
UCCUGGUACAGCUUGCAUAGUAAAUACAAA | 0.000161 ± 0.045
UCCUGGAUGUCGAAGCACUAGUAUUUAGUUA | 0.000247 ± 0.023
UCCUGGAUCAGCUUGCAUAGUAUUUACGUUA | 0.011 ± 0.006
UCCUCCUACAGCAUGCAUAGUUUUUAGUUA | 0.000932 ± 0.0068
UCCUGGUACUGCUUGCAUAGUAUAUAGUUA | 0.000257 ± 0.053
UCCUGGAACUGCUUGCAUAGUAUUUAGAUA | 0.00015 ± 0.058
UCCUCCUACAGCUUGCAUAGUAUGUAGUUA | 0.000422 ± 0.011
UCCUGGUACAGCUUGCAUAGUAUAUAGUUA | 0.000348 ± 0.03
UCCUGGAUGUCGAAGCAUAGUAUGUAGUUA | 0.000223 ± 0.031
UCCUGGAACAGCUUGCAUAGAAUUUACAAA | 0.000815 ± 0.012
UCCUGGAUGUGCAUGCAUAGUAUUAAGUUA | 0.000579 ± 0.017
UCCUGGAACAGCUUGCAUACAAUUUACAAA | 0.00076 ± 0.0096
